From patent US10905702B2 (priority 2016, dated 2021)
Where two headings read alike, the source gives them in different places. Some entries share one result that the patent states for a list of compounds.

Tested on: ERK, AKT, p38 MAPK, STAT1 and NF-κB phosphorylation in A549 cells
Type: cell-based, human

rhGal3: recombinant human galectin-3
phosphorylation of NF-κB (A549 cells, treatment alone, vs control): up to 2 fold
phosphorylation level of STAT1 (NeuK-treated A549 cells, 15 μg/ml): up to 2 fold
phosphorylation of NF-κB (NeuK-treated A549 cells, further exposure 15 μg/ml): up to 3 fold
